The source of these data is paper PMC9917249, “Zinc Inhibits the GABAAR/ATPase during Postnatal Rat Development: The Role of Cysteine Residue” (International Journal of Molecular Sciences, 2023).

This experiment deals with T1, GABAAR in cortical synaptoneurosomes (SNs) / plasma membranes.
T1 construct: gene Gabra1; native receptors, cortical synaptoneurosomes or plasma membranes; subunit composition not defined
Briefly: MQAE fluorescence, GABA-mediated Cl- influx in synaptoneurosomes. The experiment is classed as biochemical, Rattus norvegicus. As to conditions: adult rats (P35); no Zn; pH 7.4; 50 µM bumetanide.

Each structure is given as a SMILES string.

In general, EC50 refers to the concentration needed to bring the measured effect to its halfway point. A high value points to a less potent agent. Take `NCCCC(=O)O` [GABA]: the EC50 worked out at 7 µM.
